Several values for one entry are separate records, joined by “and”; a condition that tells them apart may be missing. Equal entries are not always repeated. Out of some 220,000 compounds screened, about 2,400 (1.1%) were called active. The inconclusive results got no clear call from the source; some entries with a clear call stand among them for comparison. The call rests on the fitted dose curve; in most records, active means well fitted inhibition curve with a large enough effect; inconclusive means small, poorly fitted or top-dose-only effect, or effect the other way; inactive means no such curve, though single readings can be large or run the other way. Potencies of inconclusive entries are doubtful fits and often do not repeat.
Assay: qHTS Multiplex Assay to Identify Dual Action Probes in a Cell Model of Huntington: Aggregate Formation (GFP); further: nearly all actives have a fitted effect of over 60% in size
Settings: PC12 HttQ103-GFP aggregates, Acumen cytometry, 40 h; activity change, negative = inhibition: at 46.1 µM (top of the series) unless noted
Summary of the method: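 PC12/HTTQ103-GFP, ecdysone-inducible; teb 100 nM; cpd qHTS titration; GFP aggregates read on laser cytometer, Ex 488/Em 500-530 nm.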
On the % scale 0 is the no-effect control and ±100 the full control effect; potency means the concentration at half of the fitted maximal effect.

Structure (SMILES) | Potency | activity change, negative = inhibition
S=C(NC1CCCC1)N1CCN(c2cccc(Cl)c2)CC1 | inconclusive: 35.5 µM [inhibitor, single point] | 
COc1ccc(S(=O)(=O)N2CCC(=O)N2)cc1 | inconclusive: 3.98 µM [inhibitor, single point] | 
COc1ccc(N2C(=O)/C(=C\c3ccco3)N=C2SCC(=O)NC(C)C)cc1Cl | inconclusive: 4.47 µM [activator, full curve] | 
FC(F)(F)c1ccccc1NC(=S)N1CCc2ccccc2C1 | inconclusive: 14.1 µM [inhibitor, single point] | 
CCN(CC)c1ccc(-c2nn3c(-c4cccnc4)nnc3s2)cc1 | inconclusive: 31.6 µM [inhibitor, single point] | 
O=C1CC(c2ccsc2)c2cc3c(cc2N1)OCCO3 (stereo not drawn) | inconclusive: 35.5 µM [inhibitor, partial curve] | 
CC(/C=N\NC(=O)Cn1c(C)nc2ccccc21)=C\c1ccccc1 | inconclusive: 8.91 µM [inhibitor, partial curve] | 
Cc1cc(C)n2nc(SCC(=O)c3cc(C)n(CC4CCCO4)c3C)nc2n1 (stereo not drawn) | inconclusive: 14.1 µM [inhibitor, single point] | 
CC1CCCC(C)N1C(=O)COC(=O)c1ccc(O)cc1 (stereo not drawn) |  | inactive: 45.7%
CCN(CC)C(=O)C(=O)N/N=C/c1ccc(Br)cc1 | inconclusive: 0.631 µM [inhibitor, partial curve] | 
S=c1[nH]nc(-c2cc(-c3ccco3)[nH]n2)n1-c1ccccc1 | inconclusive: 35.5 µM [activator, single point] | 
Cc1ccc(S(=O)(=O)NCCC(C)C)cc1[N+](=O)[O-] | inconclusive: 1 µM [inhibitor, single point] | 
COc1ccc(C(C2C(=O)CC(C)(C)CC2=O)C2C(=O)CC(C)(C)CC2=O)cc1COCC(F)(F)F | inconclusive: 10 µM [activator, single point] | 
Cc1c(C(=O)NCc2ccoc2)oc2ccc3c(c12)C(=O)CC(C)(C)O3 | inconclusive: 35.5 µM [inhibitor, single point] | 
Cc1cccc(-n2c(C)nc3c(cnn3-c3ccc(F)cc3)c2=O)c1 | inconclusive: 31.6 µM [inhibitor, single point] | 
O=C(Nc1ccc(Cl)cc1)Nc1nnc(CSCc2ccccc2Cl)s1 | inconclusive: 25.1 µM [inhibitor, partial curve] | 
NS(=O)(=O)c1ccc(CCN2C(=O)/C(=C\c3ccc(Cl)cc3)SC2=S)cc1 | inconclusive: 3.16 µM [inhibitor, full curve] | 
c1coc(-c2nnc3sc(Cc4cccs4)nn23)c1 | inconclusive: 2.24 µM [inhibitor, partial curve] | 
CCOC(=O)C1(C(F)(F)F)N=C(c2cccnc2)OC(N2CCCCC2)=N1 (stereo not drawn) | inconclusive: 35.5 µM [activator, single point] | 
O=C(CSC(=S)N1CCCCC1)Nc1ncc2c(n1)CCCC2=O |  | inactive: 1.57% [at 9.22 µM]
Cc1c(O)c2c3c(cccc3c1O)C(=O)N(c1ccccc1)C2=O | active: 20 µM | 
CN1CCN(CCC(=O)Nc2cccc(Br)c2)CC1 |  | inactive: 5.31% [at 9.22 µM]
Cc1cccc(NS(=O)(=O)c2cnc(Cl)c(Br)c2)n1 | inconclusive: 11.2 µM [inhibitor, partial curve] | 

Structure (SMILES) | Potency | activity change, negative = inhibition
CCn1c(=O)c([N+](=O)[O-])c(NCC2CCCO2)c2ccccc21 (stereo not drawn) |  | inactive: 14.9% [at 9.22 µM]
CNc1cc(-n2nc(C)cc2-c2ccccc2)ncn1 |  | inactive: 1.65%
CCS(=O)(=O)N1CCC(c2nc(-c3ccc(C)cc3)no2)CC1 | inconclusive: 28.2 µM [inhibitor, single point] | 
O=C(CCC(=O)Nc1ccc(F)cc1)N/N=C/c1cc([N+](=O)[O-])ccc1O | inconclusive: 22.4 µM [inhibitor, single point] | 
Cc1ccccc1CSc1nnc(NC(=O)C2COc3ccccc3O2)s1 (stereo not drawn) | inconclusive: 35.5 µM [inhibitor, single point] | 
CCc1nnc(NC(=O)CSc2nc(-c3ccccc3)nc3ccccc23)s1 |  | inactive: 12.6%
C(#Cc1ccccc1)C[N+]1(CC#Cc2ccccc2)CCCC1 | inconclusive: 14.1 µM [inhibitor, single point] | 
CCCCn1c(NC(=O)c2ccccc2Cl)c(C#N)c2nc3ccccc3nc21 | active: 10 µM | 
O=C(COC(=O)CSc1cccc2cccc(Cl)c12)Nc1ncc(C(F)(F)F)cc1Cl |  | inactive: -13.6%
CNc1nc(SCc2ccccc2Cl)nc2c1CCCC2 | active: 10 µM | 
O=C(NCC12CC3CC(CC(C3)C1)C2)c1cc2n(n1)C(C(F)(F)F)CC(c1ccco1)N2 (stereo not drawn) | inconclusive: 25.1 µM [inhibitor, single point] | 
Cc1ccc(-n2cnc3cc(NCc4cccs4)ccc32)cc1 | inconclusive: 25.1 µM [inhibitor, single point] | 
COc1cc(-c2nnc(SCC(=O)N3CCCC3)o2)cc(OC)c1OC | inconclusive: 20 µM [activator, single point] | 
O=NN(CCc1ccncc1)c1ccc(OCc2ccccc2)cc1 | inconclusive: 0.562 µM [activator, full curve, poor fit] | 
O=c1cc(C(F)F)oc2c1ccc1ccccc12 | inconclusive: 2.82 µM [inhibitor, partial curve] | 
Cc1onc(-c2c(F)cccc2Cl)c1C(=O)NCCO |  | inactive: 6.89%
COc1ccc(-c2nnc(SCC#CCO)o2)cc1OC | inconclusive: 12.6 µM [activator, partial curve] | 
CCOc1ccc(C(=O)CC(NCc2cccs2)C(=O)O)cc1 (stereo not drawn) | inconclusive: 5.62 µM [activator, single point] | 
COc1ccc(NC(=S)Nc2ccc(Oc3ccccc3)cc2)cc1 | inconclusive: 6.31 µM [inhibitor, partial curve] | 
CC(C)CC(=O)NC(NC(=S)Nc1sc2c(c1C#N)CCCC2)C(Cl)(Cl)Cl (stereo not drawn) | inconclusive: 35.5 µM [inhibitor, single point] | 
O=C(N/N=C/c1nn(-c2ccccc2)cc1-c1ccccc1)c1ccncc1 | inconclusive: 14.1 µM [inhibitor, partial curve] | 
Cc1ccc(C2CCN(C(=S)Nc3cccc(Cl)c3)C2)cc1 (stereo not drawn) | inconclusive: 12.6 µM [inhibitor, single point] | 
COc1cccc(/C=N/NC(=O)c2c(-c3ccccc3)noc2C)c1 |  | inactive: 5.95%

Record cards, from the list above.
C(#Cc1ccccc1)C[N+]1(CC#Cc2ccccc2)CCCC1 is listed as Potency: inconclusive: 14.1 µM [inhibitor, single point]
COc1cccc(/C=N/NC(=O)c2c(-c3ccccc3)noc2C)c1 is listed as activity change, negative = inhibition: inactive: 5.95%
CNc1cc(-n2nc(C)cc2-c2ccccc2)ncn1 is listed as activity change, negative = inhibition: inactive: 1.65%
Cc1ccc(-n2cnc3cc(NCc4cccs4)ccc32)cc1 is listed as Potency: inconclusive: 25.1 µM [inhibitor, single point]

Additional entries:

Structure (SMILES) | Potency | activity change, negative = inhibition
CC(C)(C)c1ccc(C(O)CCCN2CCC(C(O)(c3ccccc3)c3ccccc3)CC2)cc1 (stereo not drawn) | active: 28.2 µM and active: 22.4 µM | 
COc1cc(C2Nc3ccc4ncccc4c3C3=C2C(=O)CC(C)(C)C3)cc(OC)c1O (stereo not drawn) | inconclusive: 17.8 µM [activator, partial curve] | 
CCOC(=O)C1=C(c2ccccc2)NC(=O)NC1c1ccc(OC)c(OC)c1 (stereo not drawn) | inconclusive: 0.562 µM [activator, full curve, poor fit] | 
Cc1ccc(NC(=O)Cc2nnc(SCC(=O)Nc3ccccc3)n2C)cc1 | active: 0.178 µM | 
Cc1ccc(O)c(C2=Nc3ccccc3N=C(c3ccc([N+](=O)[O-])cc3)C2)c1 | inconclusive: 3.98 µM [inhibitor, single point] | 
CC1CCC(C(C)C)C(OC(=O)C[n+]2cc(-c3ccc(Cl)cc3)n3c2CCCCC3)C1 (stereo not drawn) | active: 12.6 µM | 
NC(=O)N/N=C/c1c(F)c(F)c(F)c(F)c1F |  | inactive: -0.288%
Cc1ccc(C2=NC(C(F)(F)F)(C(F)(F)F)c3c(n(-c4ccc(F)cc4)c(=O)[nH]c3=O)N2)cc1 | inconclusive: 14.1 µM [inhibitor, single point] | 
Cc1cc(C)c(C(=O)/C=C/c2ccc(C(C)C)cc2)c(=O)[nH]1 | inconclusive: 35.5 µM [inhibitor, single point] | 
Cc1ccc2oc(-c3ccccc3)c(C(=O)O)c(=O)c2c1 | active: 10 µM | 
CC(=O)c1sc(NC(=O)c2ccc(C)cc2)nc1C |  | inactive: 8.67%
C(=N\c1nc2ccccc2n1Cc1ccccc1)/c1cccs1 | inconclusive: 10 µM [inhibitor, single point] | 
O=C(N/N=C/c1cc(Cl)ccc1O)c1ccccc1Br | active: 2.51 µM | 
CCn1c(SCC(=O)Nc2ccccc2N2CCOCC2)nnc1-c1ccccc1O | inconclusive: 1.26 µM [inhibitor, single point] | 
Cn1c(SCc2nn[nH]n2)nc2c1c(=O)n(Cc1ccccc1Cl)c(=O)n2C | inconclusive: 3.16 µM [inhibitor, single point] | 
CC(=O)Nc1ccc(S(=O)(=O)Nc2ccc(Cl)nn2)cc1 |  | inactive: 0.59%
COc1ccc(Cc2[nH]n3c(=O)c(Cl)c(C)nc3c2-c2ccccc2)cc1 |  | inactive: 6.96%
COc1ccccc1N(C(=O)CN1C(=O)c2ccccc2S1(=O)=O)C(C(=O)NCC1CCCO1)c1ccc(F)cc1 (stereo not drawn) | inconclusive: 0.501 µM [activator, full curve, poor fit] | 
O=S(=O)(/C(=C/c1ccc(C(F)(F)F)cc1)c1nc2ccccc2[nH]1)c1ccccc1 | inconclusive: 35.5 µM [inhibitor, single point] | 
O=C(CSc1nnc(-c2ccco2)n1Cc1ccccc1)OC1CCCCC1 | active: 31.6 µM | 
CCOC(=O)C1CCN(c2c(C(=O)c3ccccc3)cnc3ccc(CC)cc23)CC1 | inconclusive: 6.31 µM [activator, partial curve, poor fit] | 
C/C(=N\Nc1nc2ccccc2s1)c1ccc2c(c1)OCO2 | inconclusive: 25.1 µM [inhibitor, single point] | 

From PubChem BioAssay AID1688 (National Center for Advancing Translational Sciences (NCATS), 2009)
